For at least one compound, name, drawing or mass did not settle the structure.
Tested on: influenza virus H1N1
Test: Hemagglutination test of supernatants of influenza-infected A549 cells
Format: cell-based, influenza virus H1N1 (A549 cells)
Details: then 24 h culture, equivalent lauric acid 0.35 mg/mL, two values per cell
Description: A total of four samples were prepared in this experiment: • (1) a lauric acid sample: 3.5 mg of lauric acid was dissolved in 0.5 mL of dimethyl sulfoxide, and then diluted with 9.5 mL of cell culture medium to a final concentration of 0.35 mg/mL and a pH value of the sample was 10.1; • (2) an α-monolaurin sample: 4.8 mg of α-monolaurin was dissolved in 0.5 mL of dimethyl sulfoxide, and then diluted with 9.5 mL of cell culture medium to a final concentration of 0.48 mg/mL and a pH value of the sample was 10.3; • (3) a triglycerol monolaurin sample: 7.5 mg of triglycerol monolaurin was diluted with 10 mL of cell culture medium to a final concentration of 0.75 mg/mL and a pH value of the sample was 7.6; and • (4) a triglycerol monolaurin acidic emulsion sample: 50 mg of triglycerol monolaurin acidic emulsion sample was diluted with 10 mL of cell culture medium to a final concentration of 5 mg/mL and a pH value of the sample was 7.5.
According to equivalent lauric acid concentration conversion, lauric acid concentrations in the samples (2) to (4) were all 0.35 mg/mL, which was equal to that in the sample (1). […]

CCCCCCCCCCCC(=O)OCC(O)CO (stereo not drawn) [(2), α-monolaurin]
hemagglutination titer (Protocol 1: virus 1 h, then sample 1 h): 2, 3 | hemagglutination titer (Protocol 2: sample and virus added together 1 h): 2, 2

Reference: US20230301957A1, “PO[…] ACID ESTER COMPOSITION AND APPLICATION THEREOF” (SINGAO (XUZHOU) BIOTECH CO., LTD, priority 2020, published 2023)
